Results are given in words; binding and its absence hold for the method and conditions named. Binding seen in cells or lysates may run through a third protein. Some entries that bind do so weakly or less than the wild type. Tags and fused reporters may be left off the sequences shown.

Sequences of proteins named here, by UniProt entry; tags and fusion partners are left off.
UniProt Q9H1Y0: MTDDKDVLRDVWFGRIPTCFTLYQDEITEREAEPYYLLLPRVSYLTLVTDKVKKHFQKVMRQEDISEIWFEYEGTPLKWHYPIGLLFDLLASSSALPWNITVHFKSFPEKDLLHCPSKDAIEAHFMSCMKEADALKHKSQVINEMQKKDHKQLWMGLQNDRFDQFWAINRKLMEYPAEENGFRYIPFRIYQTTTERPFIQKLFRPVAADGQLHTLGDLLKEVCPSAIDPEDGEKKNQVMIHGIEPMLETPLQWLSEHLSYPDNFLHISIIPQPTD

The record followed here is publication PMC12907901.

For the test, the target named is Flag-tagged ATG5 (human) (UniProt Q9H1Y0). The test is described as follows: co-IP; HEK293T; HA-SDE2 variants (full-length and truncations) with Flag-tagged ATG5.

B1: HA-SDE2 N-terminal fragment (1–300 aa) (domain or fragment, UniProt Q6IQ49-1 1-300)
chain: MAEAAALVWIRGPGFGCKAVRCASGRCTVRDFIHRHCQDQNVPVENFFVKCNGALINTSDTVQHGAVYSLEPRLCGGKGGFGSMLRALGAQIEKTTNREACRDLSGRRLRDVNHEKAMAEWVKQQAEREAEKEQKRLERLQRKLVEPKHCFTSPDYQQQCHEMAERLEDSVLKGMQAASSKMVSAEISENRKRQWPTKSQTDRGASAGKRRCFWLGMEGLETAEGSNSESSDDDSEEAPSTSGMGFHAPKIGSNGVEMAAKFPSGSQRARVVNTDHGSPEQLQIPVTDSGRHILEDSCAE
As for B1, the binding entry is listed as “binds”.

B2: HA-SDE2 C-terminal fragment (281–450 aa) (domain or fragment, UniProt Q6IQ49-1 281-450)
chain: QLQIPVTDSGRHILEDSCAELGESKEHMESRMVTETEETQEKKAESKEPIEEEPTGAGLNKDKETEERTDGERVAEVAPEERENVAVAKLQESQPGNAVIDKETIDLLAFTSVAELELLGLEKLKCELMALGLKCGGTLQERAARLFSVRGLAKEQIDPALFAKPLKGKK
As for B2, the binding result is reported as “no binding”.
